Some results were stated once for a whole list of compounds, not compound by compound. At least one structure is not confirmed: it was looked up by name or label, or the drawing left a doubt.
Tests used:
Format in all cases: in vivo
[1] = system: fall armyworm (Spodoptera frugiperda (J. E. Smith)); assay: Test B: control of fall armyworm on corn (maize) plant, foliar spray; conditions: 6 days
[2] = system: Western Flower Thrips (Frankliniella occidentalis (Pergande)); assay: Test G: control of Western Flower Thrips on Soleil bean plant, contact and/or systemic; conditions: 6 days
[3] = system: diamondback moth (Plutella xylostella (L.)); assay: Test A: control of diamondback moth on mustard plant, foliar spray; conditions: 6 days
[4] = system: green peach aphid (Myzus persicae (Sulzer)); assay: Test D: control of green peach aphid on radish plant, contact and/or systemic; conditions: 6 days
Experimental: (§1) Test Compounds were formulated using a solution containing 10% acetone, 90% water and 300 ppm Activator 90® non-ionic surfactant (Loveland Products, Loveland, Colo., USA). The formulated Compounds were applied in 1 mL of liquid through an atomizer nozzle positioned 1.27 cm (0.5 inches) above the top of each test unit. Test Compounds were sprayed at the rates indicated, and each test was replicated three times.
For evaluating control of green peach aphid (Myzus persicae (Sulzer)) through contact and/or systemic means, the test unit consisted of a small open container with a 12-15-day-old radish plant inside. This was pre-infested by placing on a leaf of the test plant 30-40 aphids on a piece of leaf excised from a culture plant (cut-leaf method). The aphids moved onto the test plant as the leaf piece desiccated. After pre-infestation, the soil of the test unit was covered with a layer of sand.
Test Compounds were formulated and sprayed at 250 and 50 ppm. After spraying of the formulated test Compound, each test unit was allowed to dry for 1 hour and then a black, screened cap was placed on top. The test units were held for 6 days in a growth chamber at 19-21° C. and 50-70% relative humidity. Each test unit was then visually assessed for insect mortality.

[5] = system: cotton melon aphid (Aphis gossypii (Glover)); assay: Test E: control of cotton melon aphid on okra plant, contact and/or systemic; conditions: 6 days
Experimental: as §1
For evaluating control of cotton melon aphid (Aphis gossypii (Glover)) through contact and/or systemic means, the test unit consisted of a small open container with a 5-day-old okra plant inside. This was pre-infested with 30-40 insects on a piece of leaf according to the cut-leaf method, and the soil of the test unit was covered with a layer of sand.
Test Compounds were formulated and sprayed at 250, 50 and 10 ppm. After spraying, the test units were maintained in a growth chamber for 6 days at 19° C. and 70% relative humidity. Each test unit was then visually assessed for insect mortality.

[6] = system: potato leafhopper (Empoasca fabae (Harris)); assay: Test C: control of potato leafhopper on Soleil bean plant, contact and/or systemic; conditions: 6 days
[7] = system: sweetpotato whitefly (Bemisia tabaci (Gennadius)); assay: Test F: control of sweetpotato whitefly on cotton plant, contact and/or systemic; conditions: sprayed at 50 ppm; 13 days

## CCN1OCC(NC(=O)c2ccc(C3=NOC(c4cc(Cl)c(F)c(Cl)c4)(C(F)(F)F)C3)c3ccoc23)C1=O (mixture of isomers) [Compound 3]
[1]; sprayed at 2 ppm
  control efficacy: feeding damage (40% or less feeding damage and/or 100% mortality): ≤ 40%
[1]; sprayed at 10 ppm
  control efficacy: feeding damage (40% or less feeding damage and/or 100% mortality): ≤ 40%
[2]; sprayed at 10 ppm
  control efficacy: plant damage (30% or less plant damage and/or 100% mortality): ≤ 30%
[3]; sprayed at 2 ppm
  control efficacy: feeding damage (40% or less feeding damage and/or 100% mortality): ≤ 40%
[3]; sprayed at 10 ppm
  control efficacy: feeding damage (40% or less feeding damage and/or 100% mortality): ≤ 40%
[4]; sprayed at 50 ppm
  mortality: at least 80%
[5]; sprayed at 10 ppm
  mortality: at least 80%
[5]; sprayed at 50 ppm
  mortality: at least 80%
[6]; sprayed at 10 ppm
  mortality: at least 80%
[6]; sprayed at 50 ppm
  mortality: at least 80%
[7]
  mortality: at least 50%

## NC(=O)c1ccc(C2=NOC(c3cc(Cl)c(F)c(Cl)c3)(C(F)(F)F)C2)c2ccoc12 (centres unmarked) [Compound 11]
[1]; sprayed at 2 ppm
  control efficacy: feeding damage (40% or less feeding damage and/or 100% mortality): ≤ 40%
[1]; sprayed at 10 ppm
  control efficacy: feeding damage (40% or less feeding damage and/or 100% mortality): ≤ 40%
[2]; sprayed at 2 ppm
  control efficacy: plant damage (30% or less plant damage and/or 100% mortality): ≤ 30%
[2]; sprayed at 10 ppm
  control efficacy: plant damage (30% or less plant damage and/or 100% mortality): ≤ 30%
[3]; sprayed at 2 ppm
  control efficacy: feeding damage (40% or less feeding damage and/or 100% mortality): ≤ 40%
[3]; sprayed at 10 ppm
  control efficacy: feeding damage (40% or less feeding damage and/or 100% mortality): ≤ 40%
[4]; sprayed at 50 ppm
  mortality: at least 80%
[5]; sprayed at 10 ppm
  mortality: at least 80%
[5]; sprayed at 50 ppm
  mortality: at least 80%
[6]; sprayed at 10 ppm
  mortality: at least 80%
[6]; sprayed at 50 ppm
  mortality: at least 80%
[7]
  mortality: at least 50%

## CC(=O)NCc1ccc(C2=NOC(c3cc(Cl)c(F)c(Cl)c3)(C(F)(F)F)C2)c2ccsc12 (centres unmarked) [Compound 85]
[1]; sprayed at 2 ppm
  control efficacy: feeding damage (40% or less feeding damage and/or 100% mortality): ≤ 40%
[3]; sprayed at 2 ppm
  control efficacy: feeding damage (40% or less feeding damage and/or 100% mortality): ≤ 40%
[4]; sprayed at 10 ppm
  mortality: at least 80%
[5]; sprayed at 10 ppm
  mortality: at least 80%
[6]; sprayed at 10 ppm
  mortality: at least 80%

## CONC(=O)C(C)NC(=O)c1ccc(C2=NOC(c3cc(Cl)c(F)c(Cl)c3)(C(F)(F)F)C2)c2sccc12 (centres unmarked) [Compound 117]
[1]; sprayed at 2 ppm
  control efficacy: feeding damage (40% or less feeding damage and/or 100% mortality): ≤ 40%
[1]; sprayed at 10 ppm
  control efficacy: feeding damage (40% or less feeding damage and/or 100% mortality): ≤ 40%
[2]; sprayed at 10 ppm
  control efficacy: plant damage (30% or less plant damage and/or 100% mortality): ≤ 30%
[3]; sprayed at 2 ppm
  control efficacy: feeding damage (40% or less feeding damage and/or 100% mortality): ≤ 40%
[3]; sprayed at 10 ppm
  control efficacy: feeding damage (40% or less feeding damage and/or 100% mortality): ≤ 40%
[6]; sprayed at 10 ppm
  mortality: at least 80%

## CC(NC(=O)c1ccc(C2=NOC(c3cc(Cl)c(F)c(Cl)c3)(C(F)(F)F)C2)c2sccc12)C(=O)NC1CC1 (centres unmarked) [Compound 118]
[1]; sprayed at 2 ppm
  control efficacy: feeding damage (40% or less feeding damage and/or 100% mortality): ≤ 40%
[2]; sprayed at 2 ppm
  control efficacy: plant damage (30% or less plant damage and/or 100% mortality): ≤ 30%
[3]; sprayed at 2 ppm
  control efficacy: feeding damage (40% or less feeding damage and/or 100% mortality): ≤ 40%
[6]; sprayed at 10 ppm
  mortality: at least 80%

## O=C(NC1CC1)c1ccc(C2=NOC(c3cc(Cl)cc(Cl)c3)(C(F)(F)F)C2)c2sccc12 (centres unmarked) [Compound 120]
[1]; sprayed at 2 ppm
  control efficacy: feeding damage (40% or less feeding damage and/or 100% mortality): ≤ 40%
[1]; sprayed at 10 ppm
  control efficacy: feeding damage (40% or less feeding damage and/or 100% mortality): ≤ 40%
[2]; sprayed at 2 ppm
  control efficacy: plant damage (30% or less plant damage and/or 100% mortality): ≤ 30%
[2]; sprayed at 10 ppm
  control efficacy: plant damage (30% or less plant damage and/or 100% mortality): ≤ 30%
[3]; sprayed at 2 ppm
  control efficacy: feeding damage (40% or less feeding damage and/or 100% mortality): ≤ 40%
[3]; sprayed at 10 ppm
  control efficacy: feeding damage (40% or less feeding damage and/or 100% mortality): ≤ 40%
[6]; sprayed at 10 ppm
  mortality: at least 80%

## O=C(NC1CS(=O)(=O)C1)c1ccc(C2=NOC(c3cc(Cl)cc(Cl)c3)(C(F)(F)F)C2)c2sccc12 (centres unmarked) [Compound 124]
[1]; sprayed at 2 ppm
  control efficacy: feeding damage (40% or less feeding damage and/or 100% mortality): ≤ 40%
[2]; sprayed at 2 ppm
  control efficacy: plant damage (30% or less plant damage and/or 100% mortality): ≤ 30%
[3]; sprayed at 2 ppm
  control efficacy: feeding damage (40% or less feeding damage and/or 100% mortality): ≤ 40%
[6]; sprayed at 10 ppm
  mortality: at least 80%

## O=C(NC1CCOCC1)c1ccc(C2=NOC(c3cc(Cl)cc(Cl)c3)(C(F)(F)F)C2)c2sccc12 (centres unmarked) [Compound 125]
[1]; sprayed at 2 ppm
  control efficacy: feeding damage (40% or less feeding damage and/or 100% mortality): ≤ 40%
[2]; sprayed at 2 ppm
  control efficacy: plant damage (30% or less plant damage and/or 100% mortality): ≤ 30%
[3]; sprayed at 2 ppm
  control efficacy: feeding damage (40% or less feeding damage and/or 100% mortality): ≤ 40%
[6]; sprayed at 10 ppm
  mortality: at least 80%

From patent US20210309652A1, “ISOXAZOLINE COMPOUNDS FOR CONTROLLING INVERTEBRATE PESTS” (priority 2018, published 2021)
